# According to PubChem BioAssay AID1508600 (Functional Genomics Laboratory (NCATS/FGL), 2020):
# About 3,700 (7%) of roughly 53,000 sequences were called active.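 How the source made its calls: active means gene knockdowns whose robust z-score for IL-1 alpha signal is at least 2 or at most -2, so actives lie on both sides; inactive means the rest.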 The list shows a part of the results.
# Assay: Components of the Cytosolic LPS Sensing Pathway: Gene Identification via Genome-wide siRNA Screen;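 further: robust z of the log signal after scaling to non-targeting control siRNA wells of the plate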
# Conditions: RAW264.7 macrophages, IL-1a HTRF, actives lie on both sides, screened at 100 nM (by protocol), cells primed 5 h with Pam3CSK4 first
# Summary of the method: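 Mouse macrophage line RAW264.7 is transfected with siRNA (100 nM final), grown 48h, primed with TLR ligand Pam3CSK4 5 h and given intracellular LipidA 24 h. IL-1a in supernatant is read by HTRF and viability by luminescence.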
row,Sequence,z-score
1,GGCUCCAACUGCUUUCAUCTT against Zswim9,inactive: 0.0664
2,GGAAGAUGUGGAAAAAGCGTT against Smarca2,inactive: -0.916
3,GCGUAUAGGUGAUGUACAGTT against Smad3,active: 2.28
4,CCUAAAUCUAUGAUGAAGATT against Cct3,inactive: -0.861
5,CGAGAAUCUGCCUCAAUUGTT against Kti12,inactive: 1.24
6,UAUAAUACUUCCCUUGCUGTT against Sox15,inactive: 0.165
7,GGUCUGUACUUGUUUAGAATT against Vwa3b,inactive: 0.42
8,GGCAUUACGUCAUGUACUATT against Tle5,inactive: 0.282
9,GCACUCAUUGCCAGGGUCATT against Pycard,active: -2.54
10,GCAGUUUUCGCUCUGGUCATT against Ppbp,inactive: 0.807
11,GGAGUUAAAUAAACACUGATT against Rnf151,inactive: 0.468
12,CCUAUCAAAGAUCAAUAGCTT against 2610507B11Rik,inactive: 0.251
13,GGACUGUCAUCUUCCUCAGTT against Ston2,active: -2.97
14,GCUCAGCUAGCAGAAAUUCTT against Nlrp2,inactive: -1.76
15,GGGAAGCAAAUCUAUACCCTT against Tnfrsf11a,inactive: -0.243
16,GGUGACAAGGACGAGAUAATT against Synpo2,inactive: -0.739
17,GGUUGGCAGCGUGGUAACUTT against Pear1,inactive: -1.61
18,CUGGAUGCAUUAACUUCUUTT against Olfr1219,inactive: 0.326
19,GGUGUCUCCCUUUCUCCUUTT against Rpp14,inactive: -1.43
20,GGCAGUAUCAAAGAAAUUGTT against Rps6ka3,active: 3.43
21,GGCUUUCGAAGGCAGAAGATT against 4930486L24Rik,inactive: 0.822
22,GGUCUGUACUUUUCUAGUGTT against Olfr394,inactive: -0.374
23,GCCUAUGAUCUGGUUAGACTT against Septin11,inactive: -0.0526

# Three entries from above, with bars between the fields.
row | Sequence | z-score
5 | CGAGAAUCUGCCUCAAUUGTT against Kti12 | inactive: 1.24
6 | UAUAAUACUUCCCUUGCUGTT against Sox15 | inactive: 0.165
18 | CUGGAUGCAUUAACUUCUUTT against Olfr1219 | inactive: 0.326

# Additional entries follow:

row,Sequence,z-score
1,GGAUAUGAAACACCAGAUCTT against Naip2,inactive: -1.89
2,GGUGUUGGAUCAUGAUGUUTT against Nf2,active: -2.14
3,GGCGUGCGAUAACACGCAATT against Med18,inactive: 1.05
4,GGAGAAGGAGAGCUUCAUCTT against Mphosph6,inactive: 1.05
5,GCUAGAGAAGCUAGAAAAGTT against Ccdc12,inactive: -1.1
6,GCCUGAACAUCAAGAUCCUTT against Bpifb5,inactive: 0.852
7,GGAGACAGAAACUUAACCUTT against Gns,inactive: -1.24
8,GGAAGGAGGAAAAGUAGGUTT against Peli1,inactive: -0.00852
9,AGGCGGUUUUUUGUCUAUGTT against Serpina1e,inactive: 0.00845
10,GGAUCCCUGUAAUAUGGCATT against Spag8,inactive: 0.846
11,GGGCCAUUUCAUGUUAAUUTT against Nit2,inactive: 0.674
12,GGUGAUUCAACUCACUUGUTT against Olfr1353,inactive: -1.33
13,GGCUGUGCUGAUCACCUACTT against Mettl26,inactive: -0.0718
14,GCCACUAUCUGGAUAAGGATT against Ftl1,active: -3.54
15,GGAUGCUGAAGUGAAGGACTT against Myt1,inactive: -0.157
16,GCCCGCCUACUUUGAAGAATT against Slc17a7,inactive: 0.989
17,CCUUUGCCUUCAGUUUUAUTT against Pramel20,inactive: 0.864
18,GGGCCUUGUUUUAGGAAUUTT against Lap3,active: 2.2
19,CAGGCCUGAACUUUUUAUUTT against Olfr533,inactive: -0.162
20,GCGAGAGUUCAAUGCGUUUTT against Pwp2,inactive: 1.64
21,GGAGAAAUUCGACUGAAAATT against Pcdhb13,active: 3.47
22,GCAGGAUAUGUAAAGGUUUTT against Gimap3,inactive: -0.924
23,GCUCAAUCUCUCUGAGACCTT against Vax1,inactive: -0.0748

row,Sequence,z-score
1,GGCAGGGAGCUUCUAGACUTT against Kiss1,inactive: -0.936
2,GGAGACCAAAAUUUCUUGGTT against Sox9,inactive: 0.0192
3,CCUAUUGUGAGCUUAAUGCTT against Nrxn2,inactive: -0.74
4,GGACUUUAAAUGCAAUAUCTT against Trps1,inactive: -0.567
5,GCCACUCGUAUGAACAUCUTT against Ado,inactive: -0.0506
6,GGAAGGUAAAAUUGAGAUCTT against Trpv2,inactive: -0.364
7,GGACGGACAUUUAUGACCCTT against Cpsf3,inactive: -0.163
8,GGUUUUAGAGGAAAUCGUATT against Arl6ip4,inactive: 0.296
9,CCCGGAUAUCCUGUGUCUUTT against Angel1,inactive: 0.0229
10,GCUUGUCAAAUAAACCAAUTT against Vdr,inactive: -0.86
11,GGCGGUUAGACAUUAUGGATT against Plac9a,inactive: 1.25
12,CGACCUAAUCACUCAGCUUTT against Tubgcp2,inactive: 1.24
13,GGUACUGGACCAAAUUGCUTT against Ppp1r15b,active: 2.26
14,GGUGACAAACUUGAAGACCTT against Entr1,inactive: 1.98
15,GGCCAGACACCAACAGAAATT against Adam23,inactive: -0.985
16,GGUUUACGAAUUCUAUCCATT against Lrtm2,inactive: 1.19
17,GCAAAAACGCAAGAUCUUCTT against Zfand2b,inactive: -0.201
18,GGCUUUUGAUCUUAUUGAGTT against Kpna1,inactive: -1.04
19,GCUCAAGUUAAUCUGUUGUTT against Ywhae,inactive: 0.962
20,CCUCAAUGGUAGGUAAUUUTT against Olfr1090,inactive: -0.466
21,GGAGAAGGAUUAUACCAGUTT against Rfesd,active: 2.2
22,GGACAGGAGAGUUAUUUAATT against Btla,inactive: 1.02

# Another view of part of the listing above:
row | Sequence | z-score
20 | GCGAGAGUUCAAUGCGUUUTT against Pwp2 | inactive: 1.64
21 | GGAGAAAUUCGACUGAAAATT against Pcdhb13 | active: 3.47
